The test deals with BDF1 mice, P388 leukemia ip, median survival T/C. Nature of the test: NCI In Vivo Anticancer Drug Screen. Data for tumor model P388 Leukemia (intraperitoneal) in B6D2F1 (BDF1) mice. As to conditions: T/C endpoint: median survival time, higher T/C = longer survival. Put shortly:
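Vehicle-dosed animals serve as the reference; survival of compound-dosed, tumour-implanted mice is divided by it.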

Setting [1] is: dose: 100.0 mg/kg/injection, schedule: Q01DX009 (ip), vehicle: saline.
Where [2] appears, read: dose: 200.0 mg/kg/injection, schedule: Q01DX009 (ip), vehicle: saline.
The mark [3] stands for this setting: dose: 12.5 mg/kg/injection, schedule: Q01DX009 (ip), vehicle: saline with Tween-80.
Setting [4] is: dose: 200.0 mg/kg/injection, schedule: Q01DX009 (ip), vehicle: saline with Tween-80.
Setting [5] is: dose: 200.0 mg/kg/injection, schedule: Q01DX009 (ip), vehicle: other.

The list is a part of this screen's results and no random one: it is rich in T/C values a quarter to a half above the control, in often repeated tests (any T/C) and in doses without a T/C. Other doses and runs of a compound stand elsewhere. T/C is the treated group as % of the vehicle group. Some entries give survivors of the animals treated and no T/C: the source holds a T/C of zero for them, seemingly a mark for toxic or unscored doses. Some doses without a T/C left all or most animals alive at the check, yet need not have been tolerated: the source hardly ever lists a survival T/C far under the control, and the zero likely stands for such cases as well. Survivors were counted at the toxicity check, usually on the fifth day, unless a day is given; later deaths do not show. Schedule codes are those of the source, read here as Q, the interval in days (D) or hours (H), X, the number of doses. Some doses were run more than once; their values stand side by side, smallest first. Where survival is the endpoint, this PubChem deposit counts one and a half times the control or more as active, and values a quarter to a half above the control carry no call in these data; other NCI protocols may use other cut-offs. Some T/C values are followed by the survivors on the day toxicity was checked, most often the fifth; where none is given, no animal had died by that day.

With `NC(=O)c1cn(C2OC(CO)C(O)C2O)c2ncnc(N)c12` (stereo not drawn), the T/C was 133 % of control (dose: 0.09 mg/kg/injection, schedule: Q01DX009 (ip), vehicle: saline with Tween-80); 127 % of control (dose: 1.3 mg/kg/injection, schedule: Q04DX003 (ip), vehicle: saline with Tween-80); 127 % of control (dose: 3.0 mg/kg/injection, schedule: Q04DX003 (ip), vehicle: saline with Tween-80); 127 % of control (dose: 4.5 mg/kg/injection, schedule: Q04DX003 (ip), vehicle: saline with Tween-80). Besides, the survivor count by setting is: (dose: 3.0 mg/kg/injection, schedule: Q01DX009 (ip), vehicle: saline with Tween-80) 6 of 6; (dose: 6.0 mg/kg/injection, schedule: Q01DX009 (ip), vehicle: saline with Tween-80) 5 of 6; (dose: 12.0 mg/kg/injection, schedule: Q01DX009 (ip), vehicle: saline with Tween-80) 1 of 6; (dose: 12.0 mg/kg/injection, schedule: Q04DX003 (ip), vehicle: saline with Tween-80) 5 of 6; (dose: 12.0 mg/kg/injection, schedule: Q04DX003 (ip), vehicle: saline) 6 of 6.

As to `O=C(O)c1cc(-c2ccccc2)[nH]c1-c1ccccc1`, the survivor count runs as follows: under setting [1], 6 of 6; under setting [2], 5 of 6.

`Cc1ccc(C(=O)[O][Hg][CH2]C2COC([CH2][Hg][O]C(=O)c3ccc(C)cc3)CO2)cc1` (stereo not drawn): the T/C (dose: 4.5 mg/kg/injection, schedule: Q01DX009 (ip), vehicle: saline with Tween-80) is 136 % of control; the T/C (dose: 8.25 mg/kg/injection, schedule: Q01DX009 (ip), vehicle: saline with Tween-80) is 136 % of control; the T/C (dose: 9.0 mg/kg/injection, schedule: Q01DX009 (ip), vehicle: saline with Tween-80) was 136 % of control; the T/C (dose: 12.5 mg/kg/injection, schedule: Q01DX009 (ip), vehicle: saline sonified) was 135 % of control; the T/C under setting [3] is 131 % of control; the T/C (dose: 18.75 mg/kg/injection, schedule: Q01DX009 (ip), vehicle: saline with Tween-80) is 127 % of control. For the same compound, the survivor count (dose: 150.0 mg/kg/injection, schedule: Q04DX003 (ip), vehicle: Klucel (hydroxypropylcellulose) (HPC)) is 0 of 6 and 3 of 6; the survivor count (dose: 225.0 mg/kg/injection, schedule: Q04DX003 (ip), vehicle: Klucel (hydroxypropylcellulose) (HPC)) was 0 of 6; the survivor count (dose: 335.0 mg/kg/injection, schedule: Q04DX003 (ip), vehicle: Klucel (hydroxypropylcellulose) (HPC)) was 0 of 6 and 1 of 6.

As to `CC(=O)OCCN1CCN(CCCN2c3ccccc3Sc3ccc(C(F)(F)F)cc32)CC1`, the T/C runs as follows: (dose: 1.56 mg/kg/injection, schedule: Q01DX009 (ip), vehicle: saline with Tween-80) 127 % of control; (dose: 12.5 mg/kg/injection, schedule: Q04DX003 (ip), vehicle: saline with Tween-80) 126 % of control; (dose: 25.0 mg/kg/injection, schedule: Q04DX003 (ip), vehicle: saline) 145 % of control; (dose: 100.0 mg/kg/injection, schedule: Q04DX003 (ip), vehicle: saline) 135 % of control [4 of 6 alive]. Moreover, the survivor count by setting is: (dose: 3.12 mg/kg/injection, schedule: Q01DX009 (ip), vehicle: saline with Tween-80) 6 of 6; (dose: 6.25 mg/kg/injection, schedule: Q01DX009 (ip), vehicle: saline with Tween-80) 6 of 6; under setting [3], 4 of 7; (dose: 25.0 mg/kg/injection, schedule: Q01DX009 (ip), vehicle: saline with Tween-80) 0 of 7; (dose: 50.0 mg/kg/injection, schedule: Q01DX009 (ip), vehicle: saline with Tween-80) 0 of 7; (dose: 50.0 mg/kg/injection, schedule: Q04DX003 (ip), vehicle: saline) 3 of 6. The survivor count is reported as 0 of 7 (dose: 100.0 mg/kg/injection, schedule: Q01DX009 (ip), vehicle: saline with Tween-80) and 5 of 6 (dose: 100.0 mg/kg/injection, schedule: Q04DX003 (ip), vehicle: saline with Tween-80).

Regarding `CCOC(=O)c1nc2nc(Cl)c(Cl)nc2[nH]1`, the survivor count is on record as 6 of 6 (dose: 8.0 mg/kg/injection, schedule: Q01DX009 (ip), vehicle: saline); 6 of 6 (dose: 16.0 mg/kg/injection, schedule: Q01DX009 (ip), vehicle: saline); 2 of 6 (dose: 400.0 mg/kg/injection, schedule: Q04DX003 (ip), vehicle: saline).

In the case of `CCC(C)(C)c1ccc(Oc2ccccc2)c(N)c1`, the survivor count (dose: 400.0 mg/kg/injection, schedule: Q04DX003 (ip), vehicle: other) is recorded as 6 of 6.

As to `[Cl][Pt+2]([Cl])([Cl])[Cl].c1ccc(C2CC[N-]CC2)cc1.c1ccc(C2CC[N-]CC2)cc1`, the T/C reads like this: (dose: 12.5 mg/kg/injection, schedule: Q01DX009 (ip), vehicle: water) 132 % of control; (dose: 50.0 mg/kg/injection, schedule: Q01DX009 (ip), vehicle: water) 134 % of control [4 of 6 alive]. The survivor count is on record as 4 of 6 (dose: 100.0 mg/kg/injection, schedule: Q01DX009 (ip), vehicle: water); 5 of 6 (dose: 200.0 mg/kg/injection, schedule: Q01DX009 (ip), vehicle: Klucel (hydroxypropylcellulose) (HPC)); 2 of 6 (dose: 200.0 mg/kg/injection, schedule: Q01DX009 (ip), vehicle: water).

As to `Nc1c(C(=O)O)ccc2c1C(=O)c1ccccc1C2=O`, for the setting “dose: 44.0 mg/kg/injection, schedule: Q04DX003 (ip), vehicle: Klucel (hydroxypropylcellulose) (HPC)”, the T/C is 125 % of control. Under “dose: 200.0 mg/kg/injection, schedule: Q01DX009 (ip), vehicle: gum acacia”, the survivor count was 0 of 6.

Turning to `O=S(=O)(CCBr)CCBr`, the survivor count is, setting by setting: under setting [4], 5 of 6; (dose: 400.0 mg/kg/injection, schedule: Q04DX003 (ip), vehicle: saline with Tween-80) 0 of 6.

With `CCCCCCCCCCCCCCC(F)C(=O)OC` (stereo not drawn), the survivor count (dose: 200.0 mg/kg/injection, schedule: Q04DX003 (sc), vehicle: olive oil, sesame oil, peanut oil) is given as 5 of 6.

In the case of `CCOC(=O)c1cc[nH]c1CC(=O)NC`, where the note is “dose: 100.0 mg/kg/injection, schedule: Q01DX001 (ip), vehicle: saline with Tween-80”, the T/C was 127 % of control.

For `Cn1c([N+](=O)[O-])cnc1CSC(=S)N1CCN(C(=S)SCc2ncc([N+](=O)[O-])n2C)CC1`, under setting [4], the T/C was 125 % of control [4 of 5 alive].

On to `Clc1ncnc2c1ncn2C1CCCCO1` (stereo not drawn), for which, under setting [5], the survivor count was 4 of 6.

Turning to `CCN(CC)C(C)CN1c2ccccc2Sc2ccccc21` (stereo not drawn), the survivor count under setting [2] is recorded as 2 of 6.

With `COc1cc2c3c(c4ccc(O)cc4c2cc1OC)[C@@H](O)[C@@H]1CCCN1C3`, the T/C runs as follows: (dose: 10.0 mg/kg/injection, schedule: Q01DX009 (ip), vehicle: water) 130 % of control; (dose: 15.0 mg/kg/injection, schedule: Q01DX009 (ip), vehicle: water) 138 % of control; (dose: 20.0 mg/kg/injection, schedule: Q01DX009 (ip), vehicle: water) 146 % of control. Besides, the survivor count is reported as 5 of 6 (dose: 20.0 mg/kg/injection, schedule: Q01DX010 (ip), vehicle: water); 5 of 6 (dose: 25.0 mg/kg/injection, schedule: Q01DX010 (ip), vehicle: water); 5 of 6 (dose: 30.0 mg/kg/injection, schedule: Q01DX010 (ip), vehicle: water); 3 of 6 (dose: 35.0 mg/kg/injection, schedule: Q01DX010 (ip), vehicle: water).

As to `NC(=O)c1c(Br)n(C2OC(CO)C(O)C2O)c2ncnc(N)c12` (stereo not drawn), the T/C was 137 % of control under setting [1] and 133 % of control under setting [2].

In the case of `CCNC(=O)OCc1c(COC(=O)NCC)c(-c2ccc(F)cc2)n2c1CCC2`, for the setting “dose: 12.5 mg/kg/injection, schedule: Q01DX009 (ip), vehicle: other”, the T/C is 149 % of control. The survivor count (dose: 50.0 mg/kg/injection, schedule: Q01DX009 (ip), vehicle: other) is reported as 2 of 6; the survivor count (dose: 100.0 mg/kg/injection, schedule: Q01DX009 (ip), vehicle: other) is reported as 1 of 6; the survivor count under setting [5] is 0 of 6.

The values above are taken from PubChem BioAssay AID328 (DTP/NCI, 2004).
